# Measured values reported in the supplement of paper PMC8728848.
# Some of the results follow.
# What was measured:
# Test in all cases: glycan array binding signal (z-score within array); higher = stronger binding
# Details in all cases: glycan notation: IUPAC condensed, linker removed
# [1] = molecular target: Fuc(a1-3)[GalNAc(b1-4)]GlcNAc
# Outline: (§1)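 Columns mapping to the same glycan were averaged after glycan names were converted to IUPAC-condensed notation. The data come from 3228 arrays in the Consortium for Functional Glycomics database, limited to those with an available protein sequence. Binding is reported as a within-array Z-score averaged across arrays of one protein sequence and across linkers.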
# [2] = molecular target: Fuc(a1-3)[GalNAc(b1-4)]GlcNAc6S
# Outline: as §1
# [3] = molecular target: Fuc(a1-4)GlcNAc
# Outline: as §1
# [4] = molecular target: Fuc(b1-3)GlcNAc
# Outline: as §1
# [5] = molecular target: Gal(a1-2)Gal
# Outline: as §1
# [6] = molecular target: Gal(a1-3)Gal
# Outline: as §1
# [7] = molecular target: Gal(a1-3)Gal(b1-3)GlcNAc
# Outline: as §1
# [8] = molecular target: Gal(a1-3)Gal(b1-3)GlcNAc(b1-2)Man
# Outline: as §1
# [9] = molecular target: Gal(a1-3)Gal(b1-3)GlcNAc(b1-2)Man(a1-3)[Gal(a1-3)Gal(b1-3)GlcNAc(b1-2)Man(a1-6)]Man(b1-4)GlcNAc(b1-4)GlcNAc
# Outline: as §1
# [10] = molecular target: Gal(a1-3)Gal(b1-3)GlcNAc(b1-3)GalNAc
# Outline: as §1
# [11] = molecular target: Gal(a1-3)Gal(b1-3)GlcNAc(b1-6)GalNAc
# Outline: as §1
# [12] = molecular target: Gal(a1-3)Gal(b1-3)[Fuc(a1-4)]GlcNAc(b1-2)Man(a1-3)[Gal(a1-3)Gal(b1-3)[Fuc(a1-4)]GlcNAc(b1-2)Man(a1-6)]Man(b1-4)GlcNAc(b1-4)GlcNAc
# Outline: as §1
# [13] = molecular target: Gal(a1-3)Gal(b1-4)Glc
# Outline: as §1
# [14] = molecular target: Gal(a1-3)Gal(b1-4)GlcNAc
# Outline: as §1
# [15] = molecular target: Gal(a1-3)Gal(b1-4)GlcNAc(b1-2)Man
# Outline: as §1
# [16] = molecular target: Gal(a1-3)Gal(b1-4)GlcNAc(b1-2)Man(a1-3)[Gal(a1-3)Gal(b1-4)GlcNAc(b1-2)Man(a1-6)]Man(b1-4)GlcNAc(b1-4)GlcNAc
# Outline: as §1
# [17] = molecular target: Gal(a1-3)Gal(b1-4)GlcNAc(b1-3)GalNAc
# Outline: as §1
# [18] = molecular target: Gal(a1-3)Gal(b1-4)GlcNAc(b1-6)GalNAc
# Outline: as §1
# [19] = molecular target: Gal(a1-3)Gal(b1-4)[Fuc(a1-3)]GlcNAc
# Outline: as §1
# [20] = molecular target: Gal(a1-3)Gal(b1-4)[Fuc(a1-3)]GlcNAc(b1-2)Man(a1-3)[Gal(a1-3)Gal(b1-4)[Fuc(a1-3)]GlcNAc(b1-2)Man(a1-6)]Man(b1-4)GlcNAc(b1-4)GlcNAc
# Outline: as §1
# [21] = molecular target: Gal(a1-3)GalNAc
# Outline: as §1
# [22] = molecular target: Gal(a1-3)[Gal(a1-4)]Gal(b1-4)GlcNAc
# Outline: as §1
# [23] = molecular target: Gal(a1-4)Gal(b1-3)GlcNAc(b1-2)Man(a1-3)[Gal(a1-4)Gal(b1-3)GlcNAc(b1-2)Man(a1-6)]Man(b1-4)GlcNAc(b1-4)GlcNAc
# Outline: as §1
# [24] = molecular target: Gal(a1-4)Gal(b1-4)Glc
# Outline: as §1
# [25] = molecular target: Gal(a1-4)Gal(b1-4)GlcNAc
# Outline: as §1
# [26] = molecular target: Gal(a1-4)Gal(b1-4)GlcNAc(b1-2)Man(a1-3)[Gal(a1-4)Gal(b1-4)GlcNAc(b1-2)Man(a1-6)]Man(b1-4)GlcNAc(b1-4)GlcNAc
# Outline: as §1
# [27] = molecular target: Gal(a1-4)Gal(b1-4)GlcNAc(b1-3)Gal(b1-4)Glc
# Outline: as §1
# [28] = molecular target: Gal(a1-4)GlcNAc
# Outline: as §1
# [29] = molecular target: Gal(a1-6)Glc
# Outline: as §1
# [30] = molecular target: Gal(b1-2)Gal
# Outline: as §1
# [31] = molecular target: Gal(b1-3)Gal
# Outline: as §1
# [32] = molecular target: Gal(b1-3)Gal(b1-4)GlcNAc
# Outline: as §1
# [33] = molecular target: Gal(b1-3)GalNAc
# Outline: as §1
# [34] = molecular target: Gal(b1-3)GalNAc(a1-3)[Fuc(a1-2)]Gal(b1-4)Glc
# Outline: as §1
# [35] = molecular target: Gal(b1-3)GalNAc(a1-3)[Fuc(a1-2)]Gal(b1-4)GlcNAc
# Outline: as §1
# [36] = molecular target: Gal(b1-3)GalNAc(b1-3)Gal
# Outline: as §1
# [37] = molecular target: Gal(b1-3)GalNAc(b1-3)Gal(a1-4)Gal(b1-4)Glc
# Outline: as §1
# [38] = molecular target: Gal(b1-3)GalNAc(b1-4)Gal(b1-4)Glc
# Outline: as §1
# [39] = molecular target: Gal(b1-3)GalNAc(b1-4)[Neu5Ac(a2-3)]Gal(b1-4)Glc
# Outline: as §1
# [40] = molecular target: Gal(b1-3)GlcNAc
# Outline: as §1
# [41] = molecular target: Gal(b1-3)GlcNAc(a1-3)Gal(b1-4)GlcNAc
# Outline: as §1
# [42] = molecular target: Gal(b1-3)GlcNAc(a1-6)Gal(b1-4)GlcNAc
# Outline: as §1
# [43] = molecular target: Gal(b1-3)GlcNAc(b1-2)Man
# Outline: as §1
# [44] = molecular target: Gal(b1-3)GlcNAc(b1-2)Man(a1-3)[Gal(b1-3)GlcNAc(b1-2)Man(a1-6)]Man(b1-4)GlcNAc(b1-4)GlcNAc
# Outline: as §1
# [45] = molecular target: Gal(b1-3)GlcNAc(b1-2)Man(a1-3)[Gal(b1-3)GlcNAc(b1-2)Man(a1-6)]Man(b1-4)GlcNAc(b1-4)[Fuc(a1-6)]GlcNAc
# Outline: as §1
binder,measurement,setting,value
Pbx1CASH domain (Cryptococcus neoformans) (protein) MDETKPLWGNPRADGISLACKDSIVERNVVYDATDGAIVLFGSAGSTVKNNHVYARTRVILGGINLVDYEPWDGDYTNVKVHHNHLYALGRYFKVGIVIGPASWSDDTESVVHSASVTDNEFSGGYWGYGIVVASAKNFEVLRNKVIWDGEQGVARFSGVPGS,glycan array binding signal (z-score),[1],0.246
same,glycan array binding signal (z-score),[2],-0.281
same,glycan array binding signal (z-score),[3],-0.287
same,glycan array binding signal (z-score),[4],-0.312
same,glycan array binding signal (z-score),[5],-0.625
same,glycan array binding signal (z-score),[6],-0.099
same,glycan array binding signal (z-score),[7],-0.681
same,glycan array binding signal (z-score),[8],-0.969
same,glycan array binding signal (z-score),[9],0.152
same,glycan array binding signal (z-score),[10],-0.095
same,glycan array binding signal (z-score),[11],1.73
same,glycan array binding signal (z-score),[12],-0.261
same,glycan array binding signal (z-score),[13],0.025
same,glycan array binding signal (z-score),[14],0.003
same,glycan array binding signal (z-score),[15],-0.504
same,glycan array binding signal (z-score),[16],0.689
same,glycan array binding signal (z-score),[17],0.792
same,glycan array binding signal (z-score),[18],-0.006
same,glycan array binding signal (z-score),[19],-0.631
same,glycan array binding signal (z-score),[20],-0.569
same,glycan array binding signal (z-score),[21],-0.612
same,glycan array binding signal (z-score),[22],-0.786
same,glycan array binding signal (z-score),[23],0.262
same,glycan array binding signal (z-score),[24],-0.13
same,glycan array binding signal (z-score),[25],-0.37
same,glycan array binding signal (z-score),[26],-0.011
same,glycan array binding signal (z-score),[27],-0.211
same,glycan array binding signal (z-score),[28],-0.656
same,glycan array binding signal (z-score),[29],-0.17
same,glycan array binding signal (z-score),[30],-0.215
same,glycan array binding signal (z-score),[31],-0.769
same,glycan array binding signal (z-score),[32],-0.418
same,glycan array binding signal (z-score),[33],0.52
same,glycan array binding signal (z-score),[34],0.601
same,glycan array binding signal (z-score),[35],0.739
same,glycan array binding signal (z-score),[36],-0.496
same,glycan array binding signal (z-score),[37],0.926
same,glycan array binding signal (z-score),[38],-0.463
same,glycan array binding signal (z-score),[39],-0.501
same,glycan array binding signal (z-score),[40],-0.543
same,glycan array binding signal (z-score),[41],-0.719
same,glycan array binding signal (z-score),[42],-0.44
same,glycan array binding signal (z-score),[43],0.145
same,glycan array binding signal (z-score),[44],-0.708
same,glycan array binding signal (z-score),[45],-0.004

# Random excerpt: 3 records from the list, in no set order.
binder,measurement,setting,value
Pbx1CASH domain (Cryptococcus neoformans) (protein) MDETKPLWGNPRADGISLACKDSIVERNVVYDATDGAIVLFGSAGSTVKNNHVYARTRVILGGINLVDYEPWDGDYTNVKVHHNHLYALGRYFKVGIVIGPASWSDDTESVVHSASVTDNEFSGGYWGYGIVVASAKNFEVLRNKVIWDGEQGVARFSGVPGS,glycan array binding signal (z-score),[40],-0.543
same,glycan array binding signal (z-score),[8],-0.969
same,glycan array binding signal (z-score),[19],-0.631
